In patent US6949381B2, “Immortalized human skin cell lines and novel serum-free medium useful for the production thereof” (Nestec S.A., priority 1995, dated 2005):
At least one compound was matched to its structure with a doubt left.

Test system: TNFα
Experiment: Secretion of TNFα in keratinocytes after induction with skin irritants (3H-thymidine incorporation into TNFα-sensitive WEHI 164 cells)
Type: cell-based, Human

Measured: TNFα-secretion after induction with

CCCCCCCCCCCCCC(=O)O[C@@H]1[C@@H](C)[C@@]2(O)[C@@H](C=C(CO)C[C@]3(O)C(=O)C(C)=C[C@@H]23)[C@@H]2C(C)(C)[C@]12OC(C)=O [PMA, phorbol-12-myristate-13-acetate]
+: DK0-NR keratinocytes, passage 3 | DK1-NR keratinocytes, passage 20-22 | DK1-NR keratinocytes, passage 32 | DK2-NR keratinocytes, passage 16 | DK2-NR keratinocytes, passage 31
